# Measurements from PubChem BioAssay AID2098 (Broad Institute, 2009).
# About 2,300 (0.77%) of roughly 300,000 compounds were called active. The inconclusive results got no clear call from the source; some entries with a clear call stand among them for comparison.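 How the source made its calls: active means more than half of replicate wells show activity change below -50%, luminescence cut by over half; inconclusive means some wells, but at most half, below -50%; inactive means no replicate well below -50%.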
# Assay: HSF1 inhibitors in luciferase reporter cells, primary screen, cell-based, NIH3T3, luminescence (AID 2098);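 further: luciferase reports HSF-1 transcriptional activity via heat shock element; 0% = median of DMSO wells and -100% = zero luminescence signal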
# Conditions: NIH3T3-HGL HSE-luciferase, MG132-induced, luminescence 8 h; stronger effect = lower value; screened at 7.5 µM (by protocol)
row,SMILES,"activity change, negative = inhibition"
1,S=C(c1ccc(N2CCOCC2)cc1)N1CCOCC1,inconclusive: -56.3%
2,COc1cccc2c(C)c(C(=O)O)[nH]c12,inconclusive: -49.2%
3,C=CCNC(=S)Nc1sc2c(c1C#N)CCCC2,active: -54.5%
4,CC(C)c1ccc(-c2nnn(CCC(=O)O)n2)cc1,inconclusive: -50.7%
5,O=C(Nc1ccc(Cl)c(Cl)c1)c1ccc(Cn2cc(Cl)cn2)cc1,inactive: 40%
6,CCOc1ccccc1N(CC(=O)Nc1ccc2c(c1)OCO2)S(C)(=O)=O,inactive: 2.23%
7,Cc1cc(C)c(NC(=O)CSc2nnc(-c3ccncc3)n2Cc2ccco2)c(Cl)c1,inconclusive: -52.2%
8,Cc1cccc(NC(=O)Cn2c(=O)n(Cc3ccco3)c(=N)c3c4c(sc32)COC(C)(C)C4)c1,inconclusive: -44.8%
9,O=C1NC2(O)C(=O)c3ccccc3C2(O)N1 (stereo unspecified),inconclusive: -46.9%
10,COc1cccc(-c2cc3nc4c(c(NCC(C)(C)CN(C)C)n3n2)CCCC4)c1,inconclusive: -48.9%
11,C/C(N)=C(/C#N)C(=O)CSc1nnc(NC(C)C)s1,inactive: 4.31%
12,O=C(O)c1cccc(COc2ccc3c(c2)CCC3)c1,active: -78.8%
13,CC(=O)c1ccc(NC(=O)c2cnn3ccccc23)cc1,inconclusive: -51.7%
14,Cc1ccc(N2NC(=O)/C(=C/c3ccc(-c4ccc(Cl)c(C(=O)O)c4)o3)C2=O)cc1,inactive: -11.5%
15,C=CCn1c(C)cc(C(=O)COC(=O)[C@@H](NC(=O)c2ccccc2Cl)C(C)C)c1C,active: -60.5%
16,OCc1ccc(O)c2ncccc12,active: -53.7%
17,CN(C)c1ccc(/C=N/NC(=O)c2ccccc2Cl)cc1,inconclusive: -50.3%
18,NS(=O)(=O)c1ccc(N/N=C/c2ccncc2)cc1,inconclusive: -27.4%
19,CCOc1ccc(NC(=S)Nc2ccc(OC(F)(F)F)cc2)cc1,inconclusive: -53.2%
20,CCCCOc1cccc(C(=O)Nc2ccc(NC(=O)c3cccs3)cc2)c1,inconclusive: -48.1%
21,CN=c1scc(-c2cccs2)n1/N=C/c1ccc(O)c(O)c1O,inconclusive: -48.1%
22,CCN(CC)CCCN1C(=O)CSC1c1ccc([N+](=O)[O-])cc1 (stereo unspecified),inactive: -4.42%
23,Cc1nnc(Sc2cc(NCCCO)c([N+](=O)[O-])c3nonc23)s1,inconclusive: -31.3%
24,O=C(NC1CC2CCCC(C1)N2C(=O)NC1CCCCC1)c1ccc(F)cc1 (stereo unspecified),inactive: -5.87%
25,COc1ccc(S(=O)(=O)NCC2CCCN(Cc3ccc(C)o3)C2)cc1 (stereo unspecified),inconclusive: -53%
26,CCOC(=O)c1c(C)nc2c(C)cccn12,active: -89.2%

# Taken from the listing for reference:
row,SMILES,"activity change, negative = inhibition"
18,NS(=O)(=O)c1ccc(N/N=C/c2ccncc2)cc1,inconclusive: -27.4%
19,CCOc1ccc(NC(=S)Nc2ccc(OC(F)(F)F)cc2)cc1,inconclusive: -53.2%
